# Experimental data published in paper doi:10.1101/2023.11.14.566657.
# The chains behind the UniProt entries cited, without tags or fusion partners. Where a name states a change or a piece, a line headed by the entry shows the natural chain unless it says otherwise.
# UniProt P43351: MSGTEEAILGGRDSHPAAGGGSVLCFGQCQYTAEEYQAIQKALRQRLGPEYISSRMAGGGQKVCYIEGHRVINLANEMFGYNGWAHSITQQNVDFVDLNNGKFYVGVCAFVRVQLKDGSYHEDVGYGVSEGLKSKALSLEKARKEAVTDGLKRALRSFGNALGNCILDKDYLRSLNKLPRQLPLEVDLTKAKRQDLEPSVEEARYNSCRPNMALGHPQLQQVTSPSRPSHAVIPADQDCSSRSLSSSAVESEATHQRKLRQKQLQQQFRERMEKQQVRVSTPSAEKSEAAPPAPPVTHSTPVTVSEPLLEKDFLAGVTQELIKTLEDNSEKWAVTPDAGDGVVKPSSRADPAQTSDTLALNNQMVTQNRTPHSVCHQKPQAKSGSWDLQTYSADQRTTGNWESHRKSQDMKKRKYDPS
# For at least one entry, the source does not settle the construct or the ends of the probe. At least one verdict was read from the data and is not stated in words by the source.
# Target: RAD52 wild type (human) (UniProt P43351)
# Test: mass photometry
# Conditions: 200 nM DNA, spool-like double ring rare
sequence,measurement,value
TTTTTTTTTTTTTTTTTTTTTTTTTTTTTTTTTTTTTTTTTTTTTTTTTTTTTTTTTTTTTTTTTTTTTTTTTTTTTTTTTTTTTTTTTT [dT90],binding result,binds
